Results: PubChem BioAssay AID504444 (National Center for Advancing Translational Sciences (NCATS), 2011)
Out of some 360,000 compounds screened, about 7,500 (2.1%) were called active. Inconclusive means that the source gave no clear call. Such entries were picked first, then a sample of the others. Calls come from the whole dose curve; as a rule, active = well fitted inhibition curve with a large enough effect; inconclusive = small, poorly fitted or top-dose-only effect, or effect the other way; inactive = flat fitted curve, though single readings scatter. Where the call is inconclusive, the potency comes from a doubtful curve fit.

Experiment: Nrf2 qHTS screen for inhibitors; note: nearly all actives have a fitted effect of over 60% in size
Conditions: A549 ARE-Fluc reporter, luciferase luminescence, 18-24 h; activity change, negative = inhibition: at 46 µM (top of the series)
In short: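 In this cell-based qHTS, ARE-driven firefly luciferase in A549 cells reports Nrf2 activity; the luminescent signal after BugLite lysis is the measured value, with a prior CellTiter-Fluor read for cell health.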
% is set by controls: 0 for no effect and ±100 for the full control effect; potency is the fitted concentration of half-maximal effect.

SMILES | Potency | activity change, negative = inhibition
COc1cccc(/C=N/NC(=O)CCCc2ccc(OC)c(C)c2)c1 | inconclusive: 29.1 µM [falling, partial curve, poor fit] | 
Cc1ccc2c(=O)cc(C(=O)Nc3c(C)n(C)n(-c4ccccc4)c3=O)oc2c1 |  | inactive: 18.6%
COc1ccccc1NC1=CC(=O)CC(c2ccccc2)C1 (stereo not drawn) | inconclusive: 0.0046 µM [falling, full curve, poor fit] | 
O=S(=O)(NC1CC1)c1ccc(S(=O)(=O)N2CCCC3(CCCCC3)C2)cc1 | inconclusive: 29.1 µM [falling, single point] | 
O=C1OC(Nc2nccs2)c2ccccc21 (stereo not drawn) | inconclusive: 13 µM [activator, partial curve, poor fit] | 
NC(=S)NC(=O)c1ccccc1 | inconclusive: 5.8 µM [activator, partial curve, poor fit] | 
O=C1c2ccccc2C(Nc2ccc(Cl)cc2)N1CCN1CCOCC1 (stereo not drawn) | inconclusive: 18.4 µM [falling, single point] | 
N=c1c(S(=O)(=O)c2ccc(Br)cc2)cc2c(=O)n3ccccc3nc2n1Cc1ccco1 | inconclusive: 20.6 µM [activator, single point] | 
N/C(=N\OC(=O)c1ccc(Br)o1)c1ccccn1 | inconclusive: 1.3 µM [activator, full curve] | 
Cc1cc(C)cc(NC(=O)Cc2noc3ccccc23)c1 | inconclusive: 18.4 µM [activator, single point] | 
Clc1ccc(OCc2nnc(-c3ccccc3Br)o2)c(Cl)c1 | inconclusive: 4.11 µM [activator, partial curve, poor fit] | 
CC(C)(c1ccccc1)c1ccc(OCC(O)CNC2CCN(Cc3ccccc3)CC2)cc1 (stereo not drawn) | inconclusive: 29.1 µM [falling, single point] | 
O=C(NCC(=O)N1CCCC1)c1cccs1 | inconclusive: 5.8 µM [activator, partial curve] | 
CCOC(=O)c1sc(=NC(=O)CCSc2ccccc2)n(C)c1C | inconclusive: 20.6 µM [activator, single point] | 
Cc1cc(NC(=O)Cn2nc(C(F)(F)F)c3c2CCC3)n(-c2ccccc2)n1 | inconclusive: 9.2 µM [falling, partial curve, poor fit] | 
CCOC(=O)C1Nc2ccc(C(F)(F)F)cc2C2c3ccccc3CC12 (stereo not drawn) | inconclusive: 29.1 µM [falling, single point] | 
CCOC(=O)N1CCC(NS(=O)(=O)c2ccc(C)c(Cl)c2)CC1 |  | inactive: -20%
Cc1nc2c3ccccc3nc(SCC(=O)c3ccc(Cl)cc3)n2n1 | inconclusive: 0.184 µM [falling, full curve, poor fit] | 

A different layout for two compounds above:
SMILES	Potency	activity change, negative = inhibition
Cc1ccc2c(=O)cc(C(=O)Nc3c(C)n(C)n(-c4ccccc4)c3=O)oc2c1		inactive: 18.6%
Cc1cc(C)cc(NC(=O)Cc2noc3ccccc23)c1	inconclusive: 18.4 µM [activator, single point]	
